The target in experiment [1] is His6-tagged snapdragon chalcone isomerase-like protein (His6-AmCHIL) (Antirrhinum majus). Nature of the experiment: affinity purification with mass spectrometry; Method I: crude extract of orange snapdragon petals with Ni2+-coated magnetic beads and His6-tagged bait, room temperature 1 h; wash 0.01 M potassium phosphate pH 7.0, 0.15 M NaCl; elution glycine-HCl pH 2.8; LC-MS/MS; beads without bait as negative control; only the target purified.

The target in experiment [2] is His6-tagged snapdragon CHIL (Antirrhinum majus (snapdragon)). The experiment is described as follows: affinity purification with mass spectrometry; Method I: His6 bait added to the crude extract of orange snapdragon petals with Ni2+-coated magnetic beads, room temperature 1 h; wash 0.01 M potassium phosphate pH 7.0, 0.15 M NaCl; elution 0.1 M glycine-HCl pH 2.8; LC-MS/MS; only the target purified.

No constants are given. Whether binding was seen depends on the method and setting. Binding seen in cells or lysates may run through a third protein. These calls come from enrichment with a bait or labelling near it, and not all partners need be listed.

B1: snapdragon chalcone synthase (AmCHS) of the petal extract (enzyme, UniProt P06515 1-390)
chain: MVTVEEVRRAQRAEGPATVLAIGTATPANCVDQSTYPDYYFRITNSEHMTELKEKFKRMCDKSNIKRRYMHLTEEILKENPAMCEYMAPSLDARQDIVVVEVPRLGKEAAQKAIKEWGQPKSKITHLVFCTTSGVDMPGADYQLTKLLGLRPSVKRFMMYQQGCFAGGTVLRMAKDLAENNAGARVLVVCSEITAVTFRGPADTHLDSLVGQALFGDGAAAVIVGSDPVVGVERPLFQIVTAAQTLLPDSHGAIDGHLREVGLTFHLLKDVPGLISKNIEKSLKEAFDPLGISDWNSVFWIAHPGGPAILDQVEEKLGLKPEKLRSTRQVLSEYGNMSSACVLFILDEMRKSSAKEGMSTTGEGLDWGVLFGFGPGLTVETVVLHSVPLN
In the case of B1, the binding result in experiment [1] is reported as “binds”.

B2: AmCHS of snapdragon petal extract (enzyme, UniProt P06515 1-390)
chain: MVTVEEVRRAQRAEGPATVLAIGTATPANCVDQSTYPDYYFRITNSEHMTELKEKFKRMCDKSNIKRRYMHLTEEILKENPAMCEYMAPSLDARQDIVVVEVPRLGKEAAQKAIKEWGQPKSKITHLVFCTTSGVDMPGADYQLTKLLGLRPSVKRFMMYQQGCFAGGTVLRMAKDLAENNAGARVLVVCSEITAVTFRGPADTHLDSLVGQALFGDGAAAVIVGSDPVVGVERPLFQIVTAAQTLLPDSHGAIDGHLREVGLTFHLLKDVPGLISKNIEKSLKEAFDPLGISDWNSVFWIAHPGGPAILDQVEEKLGLKPEKLRSTRQVLSEYGNMSSACVLFILDEMRKSSAKEGMSTTGEGLDWGVLFGFGPGLTVETVVLHSVPLN
Regarding B2, in experiment [2], the binding entry was “binds”.

For the origin of these results see paper PMC7018950.
